From publication PMC7775567
No constants are given. Whether binding was seen depends on the method and setting. In cells and extracts the contact can be indirect. Some entries that bind do so weakly or less than the wild type. Where a sequence is shown, tags or fusion partners need not be part of it.

Chains of the proteins cited; added tags and fusions are not shown.
UniProt P70478: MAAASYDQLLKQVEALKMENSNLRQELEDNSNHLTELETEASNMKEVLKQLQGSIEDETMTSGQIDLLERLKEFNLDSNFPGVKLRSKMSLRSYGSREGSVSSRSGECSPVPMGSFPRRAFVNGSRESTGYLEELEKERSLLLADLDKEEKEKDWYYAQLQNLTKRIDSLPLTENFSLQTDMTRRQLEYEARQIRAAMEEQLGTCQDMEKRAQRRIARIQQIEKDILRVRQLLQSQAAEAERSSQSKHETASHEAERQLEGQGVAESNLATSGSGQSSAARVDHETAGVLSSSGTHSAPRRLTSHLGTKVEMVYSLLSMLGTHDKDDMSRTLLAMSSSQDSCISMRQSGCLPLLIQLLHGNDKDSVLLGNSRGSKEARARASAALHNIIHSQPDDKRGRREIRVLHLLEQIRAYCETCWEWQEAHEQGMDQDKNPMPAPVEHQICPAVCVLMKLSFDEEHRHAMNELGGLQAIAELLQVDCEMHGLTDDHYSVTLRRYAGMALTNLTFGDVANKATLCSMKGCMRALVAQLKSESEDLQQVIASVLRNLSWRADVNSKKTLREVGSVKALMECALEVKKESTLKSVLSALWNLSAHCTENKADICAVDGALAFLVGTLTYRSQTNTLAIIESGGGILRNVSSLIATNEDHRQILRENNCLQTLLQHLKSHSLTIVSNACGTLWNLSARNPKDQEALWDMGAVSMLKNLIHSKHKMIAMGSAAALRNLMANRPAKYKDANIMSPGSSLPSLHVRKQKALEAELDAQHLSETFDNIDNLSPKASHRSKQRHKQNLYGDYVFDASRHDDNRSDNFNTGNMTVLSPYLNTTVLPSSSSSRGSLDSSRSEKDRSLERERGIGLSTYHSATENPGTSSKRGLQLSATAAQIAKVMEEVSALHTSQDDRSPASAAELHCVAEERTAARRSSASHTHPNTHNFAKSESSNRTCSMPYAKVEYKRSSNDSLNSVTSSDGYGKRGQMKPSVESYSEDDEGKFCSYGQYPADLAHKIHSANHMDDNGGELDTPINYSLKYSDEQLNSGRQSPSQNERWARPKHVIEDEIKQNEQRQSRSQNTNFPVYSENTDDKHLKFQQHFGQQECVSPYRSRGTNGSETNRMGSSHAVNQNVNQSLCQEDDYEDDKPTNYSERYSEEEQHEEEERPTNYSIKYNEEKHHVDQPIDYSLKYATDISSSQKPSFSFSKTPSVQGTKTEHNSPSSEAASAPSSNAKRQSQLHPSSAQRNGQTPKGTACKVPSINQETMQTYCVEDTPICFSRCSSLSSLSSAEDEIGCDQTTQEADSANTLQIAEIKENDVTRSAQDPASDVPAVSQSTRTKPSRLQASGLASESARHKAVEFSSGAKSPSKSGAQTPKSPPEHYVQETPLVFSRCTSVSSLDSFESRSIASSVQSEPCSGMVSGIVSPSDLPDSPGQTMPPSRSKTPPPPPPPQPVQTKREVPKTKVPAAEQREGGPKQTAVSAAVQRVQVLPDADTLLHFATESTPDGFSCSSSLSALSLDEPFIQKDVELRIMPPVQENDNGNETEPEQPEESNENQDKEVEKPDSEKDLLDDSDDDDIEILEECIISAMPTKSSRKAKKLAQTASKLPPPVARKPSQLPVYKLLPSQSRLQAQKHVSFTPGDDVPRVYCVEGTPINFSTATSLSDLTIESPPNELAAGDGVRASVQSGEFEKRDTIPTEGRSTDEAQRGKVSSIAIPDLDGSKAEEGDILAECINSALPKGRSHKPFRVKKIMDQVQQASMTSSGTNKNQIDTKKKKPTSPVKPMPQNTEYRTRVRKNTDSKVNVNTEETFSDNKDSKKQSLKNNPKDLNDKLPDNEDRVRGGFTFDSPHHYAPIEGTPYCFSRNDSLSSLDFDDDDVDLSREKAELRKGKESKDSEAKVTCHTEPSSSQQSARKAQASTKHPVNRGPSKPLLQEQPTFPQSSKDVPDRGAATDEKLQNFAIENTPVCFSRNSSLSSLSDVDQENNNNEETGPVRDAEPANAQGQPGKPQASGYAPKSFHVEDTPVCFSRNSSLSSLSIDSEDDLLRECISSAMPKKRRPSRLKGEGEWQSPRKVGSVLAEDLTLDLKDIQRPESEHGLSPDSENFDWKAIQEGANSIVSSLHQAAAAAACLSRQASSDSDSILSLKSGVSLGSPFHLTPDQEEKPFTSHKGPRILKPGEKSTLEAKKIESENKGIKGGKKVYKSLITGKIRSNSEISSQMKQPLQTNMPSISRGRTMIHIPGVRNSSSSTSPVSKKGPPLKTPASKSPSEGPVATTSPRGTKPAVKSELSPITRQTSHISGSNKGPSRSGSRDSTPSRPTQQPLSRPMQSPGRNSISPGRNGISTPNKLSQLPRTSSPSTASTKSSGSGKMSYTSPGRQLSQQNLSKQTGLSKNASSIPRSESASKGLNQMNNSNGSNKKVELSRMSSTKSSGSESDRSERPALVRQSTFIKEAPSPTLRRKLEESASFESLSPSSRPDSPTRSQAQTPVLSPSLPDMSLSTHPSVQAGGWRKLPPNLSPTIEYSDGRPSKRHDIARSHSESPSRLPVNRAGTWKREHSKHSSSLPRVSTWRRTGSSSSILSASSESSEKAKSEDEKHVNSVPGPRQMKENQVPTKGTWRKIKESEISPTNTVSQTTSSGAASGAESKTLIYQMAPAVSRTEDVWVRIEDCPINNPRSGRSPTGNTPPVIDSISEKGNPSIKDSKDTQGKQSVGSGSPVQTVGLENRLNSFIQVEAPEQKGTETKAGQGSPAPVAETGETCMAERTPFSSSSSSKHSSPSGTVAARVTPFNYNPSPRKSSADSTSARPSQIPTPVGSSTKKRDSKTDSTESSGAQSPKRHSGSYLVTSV
UniProt O70239: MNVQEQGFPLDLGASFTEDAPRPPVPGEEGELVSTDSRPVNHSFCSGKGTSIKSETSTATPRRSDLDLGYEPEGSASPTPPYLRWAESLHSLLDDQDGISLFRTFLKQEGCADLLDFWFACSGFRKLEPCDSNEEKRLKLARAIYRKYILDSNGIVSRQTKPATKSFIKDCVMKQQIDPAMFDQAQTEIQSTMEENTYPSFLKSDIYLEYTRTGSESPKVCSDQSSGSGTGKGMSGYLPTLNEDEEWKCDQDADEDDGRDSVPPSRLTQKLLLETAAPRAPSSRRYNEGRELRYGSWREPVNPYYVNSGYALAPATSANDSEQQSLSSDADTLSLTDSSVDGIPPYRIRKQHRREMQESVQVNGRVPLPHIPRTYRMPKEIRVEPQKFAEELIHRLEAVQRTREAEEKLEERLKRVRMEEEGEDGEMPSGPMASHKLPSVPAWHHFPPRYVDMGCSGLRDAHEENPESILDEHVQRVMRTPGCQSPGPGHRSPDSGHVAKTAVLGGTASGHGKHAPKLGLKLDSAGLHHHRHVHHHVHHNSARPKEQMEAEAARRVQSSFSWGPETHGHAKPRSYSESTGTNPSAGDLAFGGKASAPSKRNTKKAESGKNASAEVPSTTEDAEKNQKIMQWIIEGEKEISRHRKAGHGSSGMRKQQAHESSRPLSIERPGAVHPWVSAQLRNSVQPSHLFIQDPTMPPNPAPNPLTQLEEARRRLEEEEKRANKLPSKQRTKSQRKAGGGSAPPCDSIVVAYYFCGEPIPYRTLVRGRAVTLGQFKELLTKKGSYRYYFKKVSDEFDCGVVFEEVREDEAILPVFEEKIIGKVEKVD

Columns and labels:
[1] = target: APC (rat (endogenous in primary neurons)) (UniProt P70478); assay: co-IP; Neurons treated with astrocyte derived EV-CK1-IL1β (and control EVs) for 18 h; antibody against GSK3, Axin1 or APC coupled to Dynabeads M-450 Epoxy, incubated with cell lysate overnight at 4°C, washed three times with PBS; immunoblot probed for Myc tagged CK1
[2] = target: Axin1 (rat (endogenous in primary neurons)) (UniProt O70239); assay: as above

binding [1]: binds
binding [2]: no binding
B1: Myc-tagged CK1 (casein kinase 1; Csnk1a1) (enzyme, UniProt P97633 1-325)
chain: MASSSGSKAEFIVGGKYKLVRKIGSGSFGDIYLAINITNGEEVAVKLESQKARHPQLLYESKLYKILQGGVGIPHIRWYGQGKDYNVLVMDLLGPSLEDLFNFCSRRFTMKTVLMLADQMISRIEYVHTKNFIHRDIKPDNFLMGIGRHCNKLFLIDFGLAKKYRDNRTRQHIPYREDKNLTGTARYASINAHLGIEQSRRDDMESLGYVLMYFNRTSLPWQGLKAATKKQKYEKISEKKMSTPVEVLCKGFPAEFAMYLNYCRGLRFEEAPDYMYLRQLFRILFRTLNHQYDYTFDWTMLKQKAAQQAASSSGQGQQAQTPTGF
